Measured values published in the supplement of paper PMC6078165.
Values are relative to the signal before dosing, not to a vehicle control; the signal also falls without drug.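 Fibroblast labels name human fibroblasts: mostly primary ones from tissues such as uterus (C12385, HUF), lung (H6013), bone (Hs27A), adrenal (HADF) and skin (WS1), plus mammary HMF and breast cancer-associated Hs343T. The cancer cells are basal-like or mesenchymal-like triple-negative breast cancer lines. The paper calls a changed response a hit when it shifts by more than 3x the replicate standard deviation. The tissue of the other fibroblasts is not given here.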

System: MDAMB436
Assay: relative JC-1 red fluorescence (viability) vs pre-drug, coculture with fibroblast (fraction); higher = more viable cancer cells
Procedure: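 JC-1 labelled TNBC cells cocultured 1:1 (1,500 cells each) with CellTrace Violet stained primary or stromal fibroblasts in 384-well plates in FluoroBrite medium, treated with one of 42 anticancer drugs at 0.1, 1, 10 or 100 uM. JC-1 red fluorescence (mitochondrial integrity in cancer cells only) was read by plate reader every 8 h for 72 h. Values are normalised to each well's pre-drug value. The stock of one drug was tenfold lower, so its dose labels may be too high.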

COc1cc([C@@H]2c3cc4c(cc3[C@@H](O[C@@H]3O[C@@H]5CO[C@@H](c6cccs6)O[C@H]5[C@H](O)[C@H]3O)[C@H]3COC(=O)[C@H]23)OCO4)cc(OC)c1O [Teniposide]
relative JC-1 red fluorescence
Conditions | 8 h | 16 h | 24 h | 32 h | 40 h | 48 h | 56 h | 64 h | 72 h
0.1 µM, coculture fibroblast: C12385 | 0.748 | 0.712 | 0.689 | 0.617 | 0.58 | 0.567 | 0.55 | 0.539 | 0.543
0.1 µM, coculture fibroblast: H6013 | 0.811 | 0.781 | 0.757 | 0.762 | 0.753 | 0.774 | 0.752 | 0.746 | 0.704
0.1 µM, coculture fibroblast: H6019 | 0.7227 | 0.675 | 0.653 | 0.577 | 0.538 | 0.523 | 0.495 | 0.469 | 0.456
0.1 µM, coculture fibroblast: H6076 | 0.786 | 0.734 | 0.743 | 0.709 | 0.7114 | 0.6989 | 0.7238 | 0.7349 | 0.746
0.1 µM, coculture fibroblast: H6231 | 0.72 | 0.661 | 0.69 | 0.613 | 0.599 | 0.574 | 0.576 | 0.556 | 0.548
0.1 µM, coculture fibroblast: HADF | 0.785 | 0.7471 | 0.72479 | 0.703 | 0.694 | 0.719 | 0.679 | 0.683 | 0.651
0.1 µM, coculture fibroblast: HCFa | 0.761 | 0.735 | 0.709 | 0.683 | 0.682 | 0.7 | 0.645 | 0.648 | 0.604
0.1 µM, coculture fibroblast: HCPF | 0.786 | 0.741 | 0.734 | 0.659 | 0.648 | 0.614 | 0.59 | 0.585 | 0.565
0.1 µM, coculture fibroblast: HHSteC | 0.79826 | 0.7636 | 0.7346 | 0.705 | 0.697 | 0.713 | 0.665 | 0.647 | 0.599
0.1 µM, coculture fibroblast: HMF | 0.773 | 0.717 | 0.693 | 0.648 | 0.642 | 0.613 | 0.621 | 0.606 | 0.607
0.1 µM, coculture fibroblast: HPFa | 0.832 | 0.7824 | 0.766 | 0.7319 | 0.7297 | 0.745 | 0.677 | 0.648 | 0.581
0.1 µM, coculture fibroblast: HUF | 0.805 | 0.7317 | 0.7099 | 0.6359 | 0.5958 | 0.57 | 0.553 | 0.55 | 0.5492
0.1 µM, coculture fibroblast: Hs5 | 0.787 | 0.733 | 0.723 | 0.675 | 0.665 | 0.628 | 0.657 | 0.635 | 0.65
0.1 µM, coculture fibroblast: Hs27A | 0.775 | 0.725 | 0.715 | 0.696 | 0.687 | 0.76 | 0.673 | 0.675 | 0.601
0.1 µM, coculture fibroblast: Hs343T | 0.741 | 0.67 | 0.634 | 0.588 | 0.576 | 0.542 | 0.536 | 0.538 | 0.536
0.1 µM, coculture fibroblast: WS1 | 0.761 | 0.722 | 0.706 | 0.622 | 0.589 | 0.575 | 0.558 | 0.542 | 0.548
1 µM, coculture fibroblast: C12385 | 0.737 | 0.7127 | 0.704 | 0.637 | 0.617 | 0.599 | 0.591 | 0.588 | 0.588
1 µM, coculture fibroblast: H6013 | 0.844 | 0.846 | 0.858 | 0.871 | 0.898 | 0.887 | 0.794 | 0.758 | 0.761
1 µM, coculture fibroblast: H6019 | 0.737 | 0.67805 | 0.668 | 0.601 | 0.577 | 0.566 | 0.534 | 0.517 | 0.497
1 µM, coculture fibroblast: H6076 | 0.766 | 0.702 | 0.708 | 0.667 | 0.662 | 0.628 | 0.655 | 0.657 | 0.66
1 µM, coculture fibroblast: H6231 | 0.708 | 0.681 | 0.736 | 0.654 | 0.648 | 0.63 | 0.634 | 0.629 | 0.623
1 µM, coculture fibroblast: HADF | 0.8052 | 0.799 | 0.7886 | 0.774 | 0.7788 | 0.8385 | 0.774 | 0.78 | 0.751
1 µM, coculture fibroblast: HCFa | 0.882 | 0.9039 | 0.91 | 0.91 | 0.927 | 0.818 | 0.761 | 0.83 | 0.798
1 µM, coculture fibroblast: HCPF | 0.7505 | 0.7204 | 0.7609 | 0.7024 | 0.6924 | 0.6714 | 0.674 | 0.67 | 0.66
1 µM, coculture fibroblast: HHSteC | 0.797 | 0.7902 | 0.7822 | 0.7558 | 0.7615 | 0.788 | 0.7418 | 0.731 | 0.692
1 µM, coculture fibroblast: HMF | 0.761 | 0.7005 | 0.704 | 0.648 | 0.634 | 0.609 | 0.616 | 0.606 | 0.595
1 µM, coculture fibroblast: HPFa | 0.8738 | 0.85582 | 0.8436 | 0.80057 | 0.8104 | 0.821 | 0.756 | 0.729 | 0.679
1 µM, coculture fibroblast: HUF | 0.797 | 0.738 | 0.721 | 0.662 | 0.618 | 0.607 | 0.591 | 0.583 | 0.587
1 µM, coculture fibroblast: Hs5 | 0.7798 | 0.75 | 0.772 | 0.728 | 0.734 | 0.698 | 0.736 | 0.741 | 0.749
1 µM, coculture fibroblast: Hs27A | 0.797 | 0.7614 | 0.761 | 0.764 | 0.778 | 0.893 | 0.803 | 0.823 | 0.779
1 µM, coculture fibroblast: Hs343T | 0.752 | 0.7 | 0.688 | 0.65 | 0.63 | 0.596 | 0.596 | 0.59 | 0.59
1 µM, coculture fibroblast: WS1 | 0.758 | 0.703 | 0.709 | 0.639 | 0.614 | 0.602 | 0.595 | 0.582 | 0.578
